Measurements taken from PubChem BioAssay AID743255 (National Center for Advancing Translational Sciences (NCATS), 2014).
The campaign covered roughly 390,000 compounds. About 910 (0.23%) were called active. The shares of active, inactive and inconclusive entries below differ from those in the screen. Calls follow the shape of the dose curve; as a rule, active = well fitted inhibition curve with a large enough effect; inconclusive = small, poorly fitted or top-dose-only effect; inactive = no such curve, though single readings can be large or run the other way. Where the call is inconclusive, the potency comes from a doubtful curve fit.

The chains behind the UniProt entries cited, without tags or fusion partners. Where a name states a change or a piece, a line headed by the entry shows the natural chain unless it says otherwise.
UniProt O94782: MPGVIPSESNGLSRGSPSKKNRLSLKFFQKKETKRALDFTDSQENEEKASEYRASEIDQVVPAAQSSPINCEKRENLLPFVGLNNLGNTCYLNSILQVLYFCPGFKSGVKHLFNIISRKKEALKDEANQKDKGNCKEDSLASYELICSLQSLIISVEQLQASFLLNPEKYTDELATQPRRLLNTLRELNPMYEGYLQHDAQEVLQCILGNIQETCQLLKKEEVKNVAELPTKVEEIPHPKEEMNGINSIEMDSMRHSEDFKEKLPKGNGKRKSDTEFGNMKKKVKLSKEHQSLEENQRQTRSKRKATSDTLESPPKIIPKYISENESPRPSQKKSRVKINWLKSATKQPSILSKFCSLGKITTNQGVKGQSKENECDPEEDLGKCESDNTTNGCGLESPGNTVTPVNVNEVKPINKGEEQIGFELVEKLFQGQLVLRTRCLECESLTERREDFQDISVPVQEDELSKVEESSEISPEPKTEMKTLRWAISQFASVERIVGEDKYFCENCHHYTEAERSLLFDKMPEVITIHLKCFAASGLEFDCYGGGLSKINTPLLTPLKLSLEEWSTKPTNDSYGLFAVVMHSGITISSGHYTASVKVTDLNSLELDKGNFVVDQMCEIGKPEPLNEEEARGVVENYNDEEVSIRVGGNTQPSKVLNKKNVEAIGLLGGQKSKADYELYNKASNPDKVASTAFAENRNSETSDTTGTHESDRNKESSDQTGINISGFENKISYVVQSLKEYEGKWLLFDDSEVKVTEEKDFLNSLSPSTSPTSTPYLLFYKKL

Each compound was assayed against Ubiquitin carboxyl-terminal hydrolase 1 (Homo sapiens) (UniProt O94782) (assay: Inhibitors of USP1/UAF1: Primary Screen). Settings: recombinant USP1/UAF1, Ub-Rhodamine cleavage fluorescence; series mostly up to 57.1 µM.
How it was run: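 Step one: compound is pinned into 1nM USP1/UAF1 in HEPES pH 7.8 buffer with TCEP. Step two: 15 min room-temperature incubation. Step three: Ub-Rho (150nM final) starts cleavage, tracked by fluorescence over six one-minute reads.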
Also: nearly all actives have a fitted effect of over 60% in size.
Potency is read from the fitted curve at half-maximal effect.

| Compound | Potency |
| --- | --- |
| O=S(=O)(c1ccc2nc(NCc3ccccc3Cl)ccc2c1)N1CCCCC1 | inconclusive: 7.94 µM [inhibitor, full curve, poor fit] |
| O=C(Nc1ccc2c(c1)nc1n2CCN(C2CCCCC2)C1)c1ccco1 | inactive |
| CCN(CC(=O)Nc1ccc(OC)cc1)C(=O)c1ccc2c(c1)NC(=O)CS2 | inactive |
| Oc1ccc(N=Cc2sc3ccccc3c2Cl)cc1 | active: 25.1 µM |
| Cc1c(C(=O)Nc2ccccc2F)sc2ncnc(N(C)C3CCCCC3)c12 | inconclusive: 3.98 µM [inhibitor, full curve, poor fit] |
| O=C(O)CCNC1CCCCC1 | inconclusive: 39.8 µM [inhibitor, partial curve] |
| Cc1ccc(-c2ccc(C(=O)Nc3ccccc3)o2)c2ccccc12 | inconclusive: 100 µM [inhibitor, partial curve, poor fit] |
| Cc1cccc(CCNC(=O)CCc2c(C)nc3c4c(C)cc(C)nc4nn3c2C)c1 | inconclusive: 0.251 µM [inhibitor, full curve, poor fit] |
| COc1cc(-c2cc(OC)c3c(C)oc(C)c3c(=O)c2)ccc1O | inconclusive: 31.6 µM [inhibitor, partial curve] |
| CCOC(=O)Cc1ccc(NC(=O)N2CCC(CN3CCCCCC3)CC2)cc1 | inconclusive: 39.8 µM [inhibitor, partial curve] |
| O=C1CC(c2c(F)cccc2Cl)C(n2cncn2)C(O)=C1C1NCCc2ccccc21 (stereo unspecified) | inconclusive: 31.6 µM [inhibitor, partial curve] |
| Cn1c(=O)c2cc(S(=O)(=O)NC(Cc3ccccc3)C(=O)NCc3ccco3)ccc2n(C)c1=O (stereo unspecified) | inconclusive: 44.7 µM [inhibitor, partial curve] |
| COC(=O)c1cc(Br)ccc1N(Cc1cc(OC)cc(OC)c1)S(C)(=O)=O | inconclusive: 0.251 µM [inhibitor, full curve, poor fit] |
| CCOC(=O)c1sc(N(Cc2ccccc2)C(=O)COC(=O)c2cnccn2)nc1C | inactive |
| CCOc1ccc(OCC)c(NC(=O)Cn2nc(CC)n3c(cc4sccc43)c2=O)c1 | inactive |
| Cc1cc(NC(=O)C2CC2)n(-c2nc3ccccc3s2)n1 | inconclusive: 22.4 µM [inhibitor, partial curve] |
| Oc1ccc(/C=N/NC(=S)N/N=C/c2ccc(O)cc2)cc1 | inconclusive: 31.6 µM [inhibitor, partial curve] |
| CS(=O)(=O)N1Cc2ccccc2CC1C(=O)OCC(=O)NCc1ccccc1 (stereo unspecified) | inactive |
| CCOC(=O)N1CCC(NC(=O)c2ccc3c(c2)N=C(CC)c2ccccc2S3)CC1 | inconclusive: 50.1 µM [inhibitor, partial curve, poor fit] |
| Cc1oncc1C(=O)Nc1ccc2ccccc2c1 | inactive |
| COc1ccc(CC(=O)n2[nH]c(=O)c3ccccc3c2=O)cc1OC | inactive |
| c1ccc(-c2csc3nnc(SCc4ccc5c(c4)OCO5)n23)cc1 | inactive |

Fetched one by one from above:

| Compound | Potency |
| --- | --- |
| Cc1cc(NC(=O)C2CC2)n(-c2nc3ccccc3s2)n1 | inconclusive: 22.4 µM [inhibitor, partial curve] |
| CCOC(=O)Cc1ccc(NC(=O)N2CCC(CN3CCCCCC3)CC2)cc1 | inconclusive: 39.8 µM [inhibitor, partial curve] |

The list goes on.

| Compound | Potency |
| --- | --- |
| CCOc1ccc(N(CC(=O)Nc2nccs2)S(=O)(=O)c2c(C)noc2C)cc1 | inconclusive: 0.708 µM [inhibitor, full curve] |
| CCc1cccc(NC(=O)Cn2c(=O)n(CC(=O)NCCc3ccccc3)c(=O)c3ccccc32)c1 | inactive |
| O=C(N/N=C/c1cc2c3c(c1O)CCCN3CCC2)c1ccccc1O | inconclusive: 20 µM [inhibitor, partial curve, poor fit] |
| CCCCc1nn2c(=O)cc(COC(=O)c3ccc(NC(=O)CCc4ccccc4)cc3)nc2s1 | inconclusive: 8.91 µM [inhibitor, single point] |
| COn1c(-c2ccc(C)cc2)nc2ncccc21 | inconclusive: 35.5 µM [inhibitor, partial curve, poor fit] |
| O=C1C(Cl)=C(Oc2ccccc2)C(=O)c2ccccc21 | inconclusive: 35.5 µM [inhibitor, partial curve] |
| Cc1c2ccccc2nc2c(F)c(NCCO)c(F)c(F)c12 | inconclusive: 28.2 µM [inhibitor, single point] |
| Cc1occc1C(=O)N1CCCC(N2CCN(c3cccc(C(F)(F)F)c3)CC2)C1 (stereo unspecified) | inconclusive: 44.7 µM [inhibitor, partial curve] |
| COc1ccc(C(=O)c2ccc(Br)cc2)c(OC)c1OC | inconclusive: 7.08 µM [inhibitor, full curve, poor fit] |
| COc1ccccc1N1C(=O)N(C(C)=O)C2C1Nc1ccccc1N2C (stereo unspecified) | inconclusive: 15.8 µM [inhibitor, partial curve] |
| CCCCCc1ccc(-c2cn(CCCOCc3ccccc3)nn2)cc1 | inconclusive: 4.47 µM [inhibitor, full curve] |
| CC1CCCN(C(=O)CSc2nc3ccccc3o2)C1 (stereo unspecified) | inactive |
| CCCCn1c(=O)c(F)cn(Cc2ccc(OC)c([N+](=O)[O-])c2)c1=O | inactive |
| CCOC(=O)c1sc(=S)n(-c2ccc(C)cc2)c1N | inconclusive: 0.0141 µM [inhibitor, full curve, poor fit] |
| NC(=O)CSc1oc(-c2cccs2)nc1S(=O)(=O)c1ccc(Br)cc1 | inconclusive: 1.78 µM [inhibitor, full curve, poor fit] |
| CCOC(=O)C1CCCN(C2=NC(=O)/C(=C/c3ccc(O)c(OC)c3)S2)C1 (stereo unspecified) | inconclusive: 39.8 µM [inhibitor, partial curve] |
| CCCCn1c(N)c(N(CC)C(=O)c2ccccc2F)c(=O)[nH]c1=O | inconclusive: 31.6 µM [inhibitor, partial curve] |
| Cc1cccc2c(=O)cc(CSCC(=O)Nc3ccc(Cl)cc3)[nH]c12 | inactive |
| O=C(NC12CC3CC(CC(C3)C1)C2)c1cccc(OC(F)F)c1 | inconclusive: 0.794 µM [inhibitor, full curve, poor fit] |
| Cc1cccc(CNc2ccc(C(CC(N)=O)NC(=O)c3ccccc3)cc2[N+](=O)[O-])c1 (stereo unspecified) | inconclusive: 0.1 µM [inhibitor, full curve, poor fit] |
| O=C(CN1C(=O)S/C(=C/c2cccn2-c2ccc(O)cc2)C1=O)N1CCCC1 | inactive |
| Cc1cc(C)cc(NC(c2nnc(-c3cccc(F)c3)o2)c2ccc(F)cc2Cl)c1 (stereo unspecified) | inconclusive: 17.8 µM [inhibitor, partial curve] |

| Compound | Potency |
| --- | --- |
| CC(=O)c1ccc(NC(=O)CSc2c(C(C)C)cnc3c2c(=O)n(C)c(=O)n3C)cc1 | inconclusive: 0.447 µM [inhibitor, full curve, poor fit] |
| COc1cc(/C=C(\C#N)c2nc3ccccc3[nH]2)cc(Br)c1OCc1ccc(F)cc1 | inactive |
| Cc1cc(NCC(=O)Nc2ccc(C)c(S(=O)(=O)N3CCOCC3)c2)ccc1Br | inconclusive: 28.2 µM [inhibitor, partial curve] |
| CC(C)c1ccc(CN(Cc2ccco2)c2cnc(S(C)(=O)=O)nc2C(=O)Nc2ccccc2)cc1 | inconclusive: 2 µM [inhibitor, partial curve, poor fit] |
| Cc1cccc(COCC(Cc2ccccc2)N2CCN(C(=O)c3cc(Cl)cc(Cl)c3)CCC2=O)c1 (stereo unspecified) | inactive |
| C[C@H]1CN([C@@H](C)CO)C(=O)Cc2cc(NS(=O)(=O)c3cn(C)cn3)ccc2O[C@@H]1CN(C)C(=O)Nc1ccc(F)cc1 | inconclusive: 56.2 µM [inhibitor, partial curve, poor fit] |
| O=C(Cn1c(=O)n(Cc2ccc(C(=O)NCc3ccc4c(c3)OCO4)cc2)c(=O)c2ccccc21)Nc1ccc(F)cc1F | inconclusive: 35.5 µM [inhibitor, single point] |
| CCc1ccc(NC(=O)C2CCCN(c3nnc(C)c4c(C)n(-c5ccccc5)nc34)C2)cc1 (stereo unspecified) | inconclusive: 44.7 µM [inhibitor, partial curve, poor fit] |
| O=C(c1ccc2nc(-c3ccco3)c(-c3ccco3)nc2c1)N1CCN(c2ccccc2)CC1 | inactive |
| O=C(c1ccco1)N1CCN=C1SCc1ccccc1F | inconclusive: 1.41 µM [inhibitor, full curve, poor fit] |
| O=C(CSc1ncn[nH]1)c1ccco1 | inactive |
| Oc1ccc(C[C@H]2CNC(=S)N2CC2CCCN2C[C@H](Cc2ccc(O)cc2)N2C[C@H](Cc3ccccc3)N(CC3CCCCCC3)C2=S)cc1 (stereo partly specified) | inconclusive: 39.8 µM [inhibitor, single point] |
| CCCCOn1c(C)c(C(=O)OCC)c2c3nonc3ccc21 | inactive |
| O=C1C(Cc2ccccc2)Nc2ncnc(N3CCOCC3)c2N1Cc1ccccc1 (stereo unspecified) | inconclusive: 141 µM [inhibitor, partial curve, poor fit] |
| Nc1nc(-c2cccs2)c(CC(=O)O)s1 | inactive |
| Fc1ccc2cnc(-c3ccccc3)c(-c3cc(C(F)(F)F)cc(C(F)(F)F)c3)c2c1 | inconclusive: 50.1 µM [inhibitor, partial curve, poor fit] |
| Clc1ccc(C2=NCCn3nc4ccccc4c32)cc1 | inconclusive: 50.1 µM [inhibitor, partial curve, poor fit] |
| COc1ccc(OC)c(N=c2oc3cc(O)ccc3cc2C(N)=O)c1 | inconclusive: 31.6 µM [inhibitor, single point] |
| C/C(=N\N=C(/N)SC1CC(=O)N(c2ccccc2)C1=O)c1cccs1 (stereo unspecified) | inconclusive: 31.6 µM [inhibitor, partial curve, poor fit] |
| O=C(c1nnc(-c2ccccc2)o1)C1CC1 | inactive |
| Nc1c(N2CCCCC2)c2ccccc2oc1=O | inconclusive: 8.91 µM [inhibitor, partial curve, poor fit] |
| Cc1ccccc1N1CC(c2nc3ccccc3n2Cc2ccc(Br)cc2)CC1=O (stereo unspecified) | inconclusive: 44.7 µM [inhibitor, partial curve, poor fit] |

Gathered by group, those above containing a COOH group (2)

| Compound | Potency |
| --- | --- |
| O=C(O)CCNC1CCCCC1 | inconclusive: 39.8 µM [inhibitor, partial curve] |
| Nc1nc(-c2cccs2)c(CC(=O)O)s1 | inactive |
